PubChem BioAssay AID1508588 | Peter MacCallum Cancer Centre, 2020
Purpose: 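Knock-downs boosting vemurafenib effects on melanoma cell growth or lactate release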 (primary screen). System: human WM266.4 melanoma cells (BRAF V600 mutant). Reagent: siRNA pool against human genes, 40 nM. Duration: 96 h from transfection to read-out. Conditions: vemurafenib 300 nM (about IC25), added 48 h after transfection, for 48 h; comparison arm got DMSO vehicle only. Read-out: 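Cell gain (DAPI nuclei at end minus before drug, mean of two replicates) and medium lactate by absorbance per cell, both as ratio to non-targeting siRNA, also grouped into fold-change classes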. Direction: cell gain with vemurafenib: higher = more cell gain than with non-targeting siRNA; lactate per cell with vemurafenib: higher = more lactate made per cell. Hit rule: 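Enhancement is called by pairing each knock-down's vehicle-arm and drug-arm fold-change classes for viability or glycolysis; which class combinations qualify is not given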. Calls: active = enhances vemurafenib effect; inactive = no enhancement seen.
In all, the deposit lists about 18,000 reagents; shown is a part drawn at random. In the full data, 790 (4.4%) are marked active. 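Calls rest on a combination of fold-change classes in drug and vehicle arms, not all shown here.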 No sequences are given here.

Gene,cell gain with vemurafenib,lactate per cell with vemurafenib,Call
PDE11A,0.93,0.86,inactive
FRS2,0.74,0.66,inactive
CETN1,0.46,1.03,inactive
EXT2,0.79,0.54,inactive
PLPP6,0.5,1.51,inactive
CLSTN1,0.1,2.63,inactive
MRPL35,0.38,1.31,inactive
DPF2,0.53,0.98,inactive
MELTF,0.59,1.42,inactive
TNFSF11,0.22,0.6,inactive
SLC12A7,0.24,0.82,inactive
BPIFB2,0.53,0.3,inactive
GNPTG,0.35,1.63,inactive
SENP6,0.18,2.41,inactive
ZNF510,0.28,1.1,inactive
KCNJ16,0.79,1.15,inactive
PEX11B,0.48,1.39,inactive
RAB34,0.47,0.24,active
SPARCL1,0.52,0.83,inactive
CSRNP3,0.63,1.21,inactive
ZFAND4,0.57,0.56,inactive
GPR18,0.82,1.18,inactive
PAK3,0.62,1.32,inactive
CLCN1,0.58,1.12,inactive
MORN4,0.36,0.74,inactive
ASIC4,0.45,0.86,inactive
CRELD2,0.7,1,inactive
ATP5F1A,0.75,1.08,inactive
BARX1,0.46,2.15,inactive
NAP1L4,0.21,0.48,inactive
EHF,0.98,0.74,inactive
ATP6V0B,0.42,1.05,inactive
COQ8B,0.15,0.92,inactive
RPP40,0.55,0.7,active
ACSS3,0.73,0.87,inactive
OSGEP,0.74,0.69,inactive
TNFRSF10A,0.94,0.38,inactive
ERN2,0.83,0.64,inactive
LRFN5,0.72,0.48,active
YIF1B,0.12,1.69,inactive
RAB27A,1.13,0.85,inactive
ZNF648,0.84,0.79,inactive
BRIX1,0.26,1,inactive
AMZ2,1.39,0.58,inactive
MLN,0.39,0.85,inactive
EID1,0.5,0.6,inactive
CNTNAP5,0.6,1.56,inactive
PNP,0.71,0.74,inactive
KIFC2,0.19,0.76,inactive
MRPL4,0.14,2.03,inactive
LRP2BP,0.29,1.38,inactive
KHNYN,0.75,1,inactive
PPFIA2,0.44,1.33,inactive
KRT17,0.57,1.03,inactive
PATJ,0.54,0.84,inactive
KRT86,0.97,0.94,inactive
ALDH3A1,0.41,0.75,inactive
SHBG,0.85,0.75,inactive
CKAP4,0.37,1.78,inactive
TRIM24,0.45,1.88,inactive
ARGFX,0.51,1.53,inactive
KCNMB2,0.44,0.64,inactive
PTTG1IP,0.71,0.41,inactive
ZBTB22,1,0.53,inactive
ALPI,0.84,0.64,inactive
CUEDC1,0.68,0.6,inactive
HSPA1B,0.97,0.64,inactive
ACOT2,0.48,0.32,inactive
BOLL,0.47,0.83,inactive
MAGEB18,0.27,0.56,inactive
TARS2,0.74,1.14,inactive
CRMA,0.33,0.73,inactive
RALA,0.73,1.29,inactive
KDF1,0.29,1.38,inactive
RUSC1,0.68,0.82,inactive
RAB8B,0.81,0.88,inactive
RPL7L1,0.86,0.71,inactive
LBX2,0.93,0.59,inactive
ALG3,0.77,0.68,inactive
B3GAT1,0.47,1.08,inactive
ACOT12,0.56,0.65,inactive
DAOA,0.15,2.28,inactive
TBXAS1,0.88,0.55,inactive
COL9A2,0.15,0.78,inactive

14 of these entries, reformatted:
{"Gene":"ATP5F1A","cell gain with vemurafenib":0.75,"lactate per cell with vemurafenib":1.08,"Call":"inactive"}
{"Gene":"BARX1","cell gain with vemurafenib":0.46,"lactate per cell with vemurafenib":2.15,"Call":"inactive"}
{"Gene":"NAP1L4","cell gain with vemurafenib":0.21,"lactate per cell with vemurafenib":0.48,"Call":"inactive"}
{"Gene":"EHF","cell gain with vemurafenib":0.98,"lactate per cell with vemurafenib":0.74,"Call":"inactive"}
{"Gene":"ATP6V0B","cell gain with vemurafenib":0.42,"lactate per cell with vemurafenib":1.05,"Call":"inactive"}
{"Gene":"COQ8B","cell gain with vemurafenib":0.15,"lactate per cell with vemurafenib":0.92,"Call":"inactive"}
{"Gene":"RPP40","cell gain with vemurafenib":0.55,"lactate per cell with vemurafenib":0.7,"Call":"active"}
{"Gene":"ACSS3","cell gain with vemurafenib":0.73,"lactate per cell with vemurafenib":0.87,"Call":"inactive"}
{"Gene":"OSGEP","cell gain with vemurafenib":0.74,"lactate per cell with vemurafenib":0.69,"Call":"inactive"}
{"Gene":"TNFRSF10A","cell gain with vemurafenib":0.94,"lactate per cell with vemurafenib":0.38,"Call":"inactive"}
{"Gene":"ERN2","cell gain with vemurafenib":0.83,"lactate per cell with vemurafenib":0.64,"Call":"inactive"}
{"Gene":"LRFN5","cell gain with vemurafenib":0.72,"lactate per cell with vemurafenib":0.48,"Call":"active"}
{"Gene":"YIF1B","cell gain with vemurafenib":0.12,"lactate per cell with vemurafenib":1.69,"Call":"inactive"}
{"Gene":"RAB27A","cell gain with vemurafenib":1.13,"lactate per cell with vemurafenib":0.85,"Call":"inactive"}
